Measured values taken from the supplement of paper PMC10849652.
This is one part of the list.

Protein sequences, listed by entry. Tags and fused reporters are not part of them. Lines headed by an entry give the natural chain unless they say otherwise; changes in a name come on top.
UniProt P09131: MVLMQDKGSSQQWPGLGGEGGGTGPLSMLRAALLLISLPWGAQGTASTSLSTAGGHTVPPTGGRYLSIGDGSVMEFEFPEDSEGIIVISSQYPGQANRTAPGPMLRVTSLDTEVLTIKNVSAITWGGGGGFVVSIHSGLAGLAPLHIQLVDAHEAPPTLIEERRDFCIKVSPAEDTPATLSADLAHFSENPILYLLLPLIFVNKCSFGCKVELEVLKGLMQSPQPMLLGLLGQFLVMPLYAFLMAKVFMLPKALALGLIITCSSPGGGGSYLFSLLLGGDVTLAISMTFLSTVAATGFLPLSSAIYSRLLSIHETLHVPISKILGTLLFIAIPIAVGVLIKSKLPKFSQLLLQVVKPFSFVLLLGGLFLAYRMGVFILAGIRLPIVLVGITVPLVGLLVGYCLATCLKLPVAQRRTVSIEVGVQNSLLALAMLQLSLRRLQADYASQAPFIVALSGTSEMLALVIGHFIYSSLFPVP
UniProt Q8N755: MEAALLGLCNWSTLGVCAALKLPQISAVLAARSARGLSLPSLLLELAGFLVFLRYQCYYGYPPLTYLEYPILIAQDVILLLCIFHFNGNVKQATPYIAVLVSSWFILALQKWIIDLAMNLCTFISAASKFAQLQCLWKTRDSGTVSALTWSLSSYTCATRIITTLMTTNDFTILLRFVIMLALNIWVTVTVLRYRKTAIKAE
UniProt P48751: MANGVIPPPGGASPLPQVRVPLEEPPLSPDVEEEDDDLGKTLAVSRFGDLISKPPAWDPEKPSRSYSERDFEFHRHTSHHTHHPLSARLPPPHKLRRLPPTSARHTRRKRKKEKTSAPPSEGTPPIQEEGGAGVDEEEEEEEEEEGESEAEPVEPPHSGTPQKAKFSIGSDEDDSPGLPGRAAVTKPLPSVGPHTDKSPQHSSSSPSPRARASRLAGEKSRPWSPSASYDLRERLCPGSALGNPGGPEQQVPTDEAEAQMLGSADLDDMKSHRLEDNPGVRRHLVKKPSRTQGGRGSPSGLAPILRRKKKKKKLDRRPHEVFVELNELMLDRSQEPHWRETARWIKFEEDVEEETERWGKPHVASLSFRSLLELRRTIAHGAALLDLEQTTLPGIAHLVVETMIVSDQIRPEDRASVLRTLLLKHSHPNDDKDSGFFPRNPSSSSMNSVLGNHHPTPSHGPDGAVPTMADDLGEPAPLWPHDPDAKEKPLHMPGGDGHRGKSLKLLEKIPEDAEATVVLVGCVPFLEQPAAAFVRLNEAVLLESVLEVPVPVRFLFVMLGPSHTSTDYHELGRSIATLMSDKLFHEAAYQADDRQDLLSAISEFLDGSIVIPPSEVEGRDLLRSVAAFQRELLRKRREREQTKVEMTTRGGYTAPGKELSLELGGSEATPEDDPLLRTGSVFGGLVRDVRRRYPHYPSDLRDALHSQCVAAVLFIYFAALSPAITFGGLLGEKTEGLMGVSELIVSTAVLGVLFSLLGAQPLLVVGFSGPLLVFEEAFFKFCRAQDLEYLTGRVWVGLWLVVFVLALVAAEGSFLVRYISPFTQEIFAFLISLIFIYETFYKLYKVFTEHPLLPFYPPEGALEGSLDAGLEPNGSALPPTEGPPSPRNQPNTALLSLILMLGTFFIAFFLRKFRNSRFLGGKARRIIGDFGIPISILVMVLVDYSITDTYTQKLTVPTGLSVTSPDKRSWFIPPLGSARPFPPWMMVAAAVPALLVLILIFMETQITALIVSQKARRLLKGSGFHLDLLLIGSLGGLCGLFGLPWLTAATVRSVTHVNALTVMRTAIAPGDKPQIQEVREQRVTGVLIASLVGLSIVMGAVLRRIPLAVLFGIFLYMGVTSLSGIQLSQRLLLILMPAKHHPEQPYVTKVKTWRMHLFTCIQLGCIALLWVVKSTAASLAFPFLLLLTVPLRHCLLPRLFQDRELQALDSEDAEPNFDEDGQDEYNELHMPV
UniProt F5GZS6: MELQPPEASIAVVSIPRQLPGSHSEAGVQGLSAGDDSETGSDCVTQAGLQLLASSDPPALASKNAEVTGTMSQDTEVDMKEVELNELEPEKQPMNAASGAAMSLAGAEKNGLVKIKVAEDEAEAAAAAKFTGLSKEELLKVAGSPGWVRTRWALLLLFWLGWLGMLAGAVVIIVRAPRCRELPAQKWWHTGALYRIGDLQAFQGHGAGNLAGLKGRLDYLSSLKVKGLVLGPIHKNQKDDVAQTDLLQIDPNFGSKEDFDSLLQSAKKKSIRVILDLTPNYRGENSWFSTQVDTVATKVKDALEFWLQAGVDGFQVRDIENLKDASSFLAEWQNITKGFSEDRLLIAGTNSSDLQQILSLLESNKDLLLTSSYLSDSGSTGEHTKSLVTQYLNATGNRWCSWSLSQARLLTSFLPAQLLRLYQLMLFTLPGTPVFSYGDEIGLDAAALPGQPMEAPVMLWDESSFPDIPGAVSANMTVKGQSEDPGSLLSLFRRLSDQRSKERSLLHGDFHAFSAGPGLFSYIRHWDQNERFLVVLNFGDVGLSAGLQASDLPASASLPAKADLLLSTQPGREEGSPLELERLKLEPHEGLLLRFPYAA
UniProt P50443: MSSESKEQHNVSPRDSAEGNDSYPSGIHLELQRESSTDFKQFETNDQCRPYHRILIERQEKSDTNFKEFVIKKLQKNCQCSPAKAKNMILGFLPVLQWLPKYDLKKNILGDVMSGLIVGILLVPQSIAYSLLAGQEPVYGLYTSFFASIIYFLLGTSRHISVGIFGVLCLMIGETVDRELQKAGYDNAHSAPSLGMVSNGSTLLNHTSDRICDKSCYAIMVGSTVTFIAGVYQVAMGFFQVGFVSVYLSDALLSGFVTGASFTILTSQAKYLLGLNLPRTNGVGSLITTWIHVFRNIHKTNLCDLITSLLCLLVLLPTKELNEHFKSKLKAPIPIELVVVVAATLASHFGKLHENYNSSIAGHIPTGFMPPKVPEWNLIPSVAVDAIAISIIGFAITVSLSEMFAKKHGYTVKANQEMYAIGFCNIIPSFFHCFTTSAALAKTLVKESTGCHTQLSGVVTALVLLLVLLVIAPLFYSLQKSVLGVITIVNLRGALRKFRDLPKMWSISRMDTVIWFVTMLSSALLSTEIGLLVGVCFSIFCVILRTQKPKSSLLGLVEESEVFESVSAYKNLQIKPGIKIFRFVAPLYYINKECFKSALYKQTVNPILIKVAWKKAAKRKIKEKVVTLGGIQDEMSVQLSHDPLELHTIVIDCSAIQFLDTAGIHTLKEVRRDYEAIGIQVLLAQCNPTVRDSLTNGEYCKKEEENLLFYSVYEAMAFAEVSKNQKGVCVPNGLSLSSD
UniProt Q96K37: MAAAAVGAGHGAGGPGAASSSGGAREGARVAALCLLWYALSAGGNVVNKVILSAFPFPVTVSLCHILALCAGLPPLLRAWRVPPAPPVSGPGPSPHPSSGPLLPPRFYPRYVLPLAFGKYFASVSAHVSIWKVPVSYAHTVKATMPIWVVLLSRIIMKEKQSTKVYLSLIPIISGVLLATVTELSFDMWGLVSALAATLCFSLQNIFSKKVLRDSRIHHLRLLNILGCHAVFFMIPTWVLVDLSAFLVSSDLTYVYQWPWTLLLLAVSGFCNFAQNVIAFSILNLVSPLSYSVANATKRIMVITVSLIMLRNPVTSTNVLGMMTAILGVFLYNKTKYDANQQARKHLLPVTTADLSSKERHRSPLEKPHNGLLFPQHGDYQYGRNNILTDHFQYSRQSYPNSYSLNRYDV
UniProt Q8N2U9: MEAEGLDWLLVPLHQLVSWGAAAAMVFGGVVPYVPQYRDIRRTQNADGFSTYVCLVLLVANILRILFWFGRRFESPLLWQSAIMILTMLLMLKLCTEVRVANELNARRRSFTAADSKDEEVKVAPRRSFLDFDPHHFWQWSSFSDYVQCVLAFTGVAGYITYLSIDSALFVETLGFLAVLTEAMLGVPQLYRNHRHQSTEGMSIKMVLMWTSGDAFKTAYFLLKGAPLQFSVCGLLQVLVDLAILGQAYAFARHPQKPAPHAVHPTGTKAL
UniProt Q695T7: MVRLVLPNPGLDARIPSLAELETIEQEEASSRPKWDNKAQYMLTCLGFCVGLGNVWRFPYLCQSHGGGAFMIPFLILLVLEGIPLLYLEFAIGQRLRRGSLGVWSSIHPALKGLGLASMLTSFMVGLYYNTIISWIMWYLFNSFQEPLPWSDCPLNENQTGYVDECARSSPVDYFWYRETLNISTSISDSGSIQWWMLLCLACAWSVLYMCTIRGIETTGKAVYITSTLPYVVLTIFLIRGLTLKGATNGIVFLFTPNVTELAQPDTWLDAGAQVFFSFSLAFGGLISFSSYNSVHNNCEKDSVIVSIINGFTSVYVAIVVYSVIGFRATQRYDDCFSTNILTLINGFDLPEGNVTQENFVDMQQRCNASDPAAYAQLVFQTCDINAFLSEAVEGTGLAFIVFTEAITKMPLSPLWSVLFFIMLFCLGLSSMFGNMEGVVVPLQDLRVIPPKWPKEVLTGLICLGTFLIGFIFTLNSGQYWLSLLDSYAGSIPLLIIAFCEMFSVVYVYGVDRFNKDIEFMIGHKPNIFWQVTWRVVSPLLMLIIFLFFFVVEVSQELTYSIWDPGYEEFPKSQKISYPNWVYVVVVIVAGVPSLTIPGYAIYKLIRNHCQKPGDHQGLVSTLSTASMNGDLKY
UniProt Q9H015: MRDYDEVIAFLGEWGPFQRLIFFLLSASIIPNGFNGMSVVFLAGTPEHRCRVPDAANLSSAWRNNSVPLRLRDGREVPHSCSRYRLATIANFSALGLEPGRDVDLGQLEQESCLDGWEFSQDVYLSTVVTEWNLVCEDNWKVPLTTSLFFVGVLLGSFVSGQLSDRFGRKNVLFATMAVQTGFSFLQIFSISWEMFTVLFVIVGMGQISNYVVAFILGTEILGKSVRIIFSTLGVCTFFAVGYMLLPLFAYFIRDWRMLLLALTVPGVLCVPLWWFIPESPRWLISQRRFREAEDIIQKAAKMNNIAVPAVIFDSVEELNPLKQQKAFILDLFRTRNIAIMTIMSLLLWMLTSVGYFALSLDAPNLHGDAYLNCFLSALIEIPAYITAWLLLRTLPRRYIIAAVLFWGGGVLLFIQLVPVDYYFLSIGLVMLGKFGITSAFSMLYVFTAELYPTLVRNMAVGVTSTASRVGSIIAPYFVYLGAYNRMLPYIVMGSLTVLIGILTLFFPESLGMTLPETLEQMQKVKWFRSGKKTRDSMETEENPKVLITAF
UniProt Q9NQQ7: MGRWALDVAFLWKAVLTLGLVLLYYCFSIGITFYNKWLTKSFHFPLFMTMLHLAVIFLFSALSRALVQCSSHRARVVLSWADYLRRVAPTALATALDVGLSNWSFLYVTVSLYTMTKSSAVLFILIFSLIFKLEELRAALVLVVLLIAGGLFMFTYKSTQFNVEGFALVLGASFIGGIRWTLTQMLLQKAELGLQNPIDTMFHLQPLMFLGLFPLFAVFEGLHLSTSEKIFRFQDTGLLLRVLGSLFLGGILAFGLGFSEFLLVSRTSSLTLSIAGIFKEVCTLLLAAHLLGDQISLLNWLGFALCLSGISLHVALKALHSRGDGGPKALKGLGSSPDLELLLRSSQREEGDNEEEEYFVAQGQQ
UniProt O76082: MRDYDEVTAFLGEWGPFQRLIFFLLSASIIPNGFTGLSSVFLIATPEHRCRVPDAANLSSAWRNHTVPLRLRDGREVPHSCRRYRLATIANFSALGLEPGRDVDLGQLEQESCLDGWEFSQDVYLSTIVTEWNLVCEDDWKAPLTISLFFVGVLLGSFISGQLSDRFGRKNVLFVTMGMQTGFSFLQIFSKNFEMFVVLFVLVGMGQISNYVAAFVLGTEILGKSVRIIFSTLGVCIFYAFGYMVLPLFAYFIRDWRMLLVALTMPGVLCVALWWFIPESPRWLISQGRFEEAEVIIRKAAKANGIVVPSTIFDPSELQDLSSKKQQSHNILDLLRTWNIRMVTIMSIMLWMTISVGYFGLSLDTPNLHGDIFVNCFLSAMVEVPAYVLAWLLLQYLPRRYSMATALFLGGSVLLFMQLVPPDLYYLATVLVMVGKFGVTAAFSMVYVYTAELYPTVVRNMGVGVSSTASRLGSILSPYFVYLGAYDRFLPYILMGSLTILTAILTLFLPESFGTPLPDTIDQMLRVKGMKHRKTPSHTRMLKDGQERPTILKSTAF
UniProt Q8NBI5: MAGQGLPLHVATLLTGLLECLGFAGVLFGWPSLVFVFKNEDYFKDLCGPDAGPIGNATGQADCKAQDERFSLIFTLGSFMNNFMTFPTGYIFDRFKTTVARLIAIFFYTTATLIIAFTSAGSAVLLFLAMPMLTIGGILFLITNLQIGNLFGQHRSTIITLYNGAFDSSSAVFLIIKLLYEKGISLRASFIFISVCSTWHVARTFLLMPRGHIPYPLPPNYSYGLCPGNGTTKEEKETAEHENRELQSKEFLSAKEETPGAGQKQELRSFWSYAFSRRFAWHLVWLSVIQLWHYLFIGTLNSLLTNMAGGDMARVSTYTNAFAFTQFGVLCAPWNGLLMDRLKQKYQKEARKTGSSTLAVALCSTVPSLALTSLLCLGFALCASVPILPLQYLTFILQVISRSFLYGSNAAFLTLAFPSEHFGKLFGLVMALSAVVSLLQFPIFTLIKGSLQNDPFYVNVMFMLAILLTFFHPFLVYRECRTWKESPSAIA

compound: O=C(O)c1ccc2c(c1)nc(Nc1cccc(Cl)c1)c1ccncc12 [silmitasertib]; experiment: log2 fold change, soluble protein after heating vs DMSO (PISA); higher = thermal stabilisation; K562 cells, 10 uM, 30 min; active = over 0.2 and 3.5 SD of the protein, either way, in both replicates (recomputed)
How it was run: (§1)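 Quantification of soluble protein used TMTpro 16plex LC-MS/MS, with channel sums equalised. Samples were the supernatant after 21,000xg for 90 min of pooled aliquots from K562 cells (2×10^6 cells/mL) treated with 10 μM compound for 30 min, heated for 3 min over 48°C-58°C, and extracted in PBS with 0.5% NP-40 at 4°C. Values, from duplicates, describe thermal stability against control samples on a log2 fold-change scale.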

log2 fold change, inactive:
SLC15A4 (UniProt Q8N697) -0.028
SLC10A3 (UniProt P09131) 0.204
SLC66A3 (UniProt Q8N755) -0.06
SLC4A3 isoform 3 (UniProt P48751) 0.044
SLC3A2 (UniProt F5GZS6) 0.008
SLC1A3 (UniProt P43003) -0.021
SLC66A1 (UniProt Q6ZP29) 0.261
SLC25A14 isoform 3 (UniProt O95258) 0.083
SLC41A1 (UniProt Q8IVJ1) 0.054
SLC27A6 (UniProt Q9Y2P4) -0.011
SLC52A2 (UniProt Q9HAB3) -0.013
SLC26A2 (UniProt P50443) 0.034
SLC35E1 (UniProt Q96K37) 0
SLC50A1 (UniProt Q9BRV3) 0.012
SLC22A23 (UniProt A1A5C7) 0.083
SLC31A1 (UniProt O15431) -0.062
SLC66A2 (UniProt Q8N2U9) 0.11
SLC10A7 isoform 1 (UniProt Q0GE19) -0.237
SLC36A4 (UniProt Q6YBV0) -0.078
SLC3A2 (UniProt F5H867) 0.02
SLC36A1 (UniProt Q7Z2H8) 0.06
SLC6A19 (UniProt Q695T7) 0.028

compound: O=C1NC(=O)C(c2cnc3ccccn23)=C1c1cn2c3c(cc(F)cc13)CN(C(=O)N1CCCCC1)CC2; experiment: as above
How it was run: as §1

log2 fold change, inactive:
SLC22A4 (UniProt Q9H015) -0.104
SLC10A3 (UniProt P09131) 0.091
SLC66A3 (UniProt Q8N755) -0.007
SLC3A2 (UniProt F5GZS6) 0.167
SLC1A3 (UniProt P43003) -0.18
SLC35C2 isoform 3 (UniProt Q9NQQ7) -0.138
SLC22A5 isoform 3 (UniProt O76082) 0.352
SLC41A1 (UniProt Q8IVJ1) 0.188
SLC27A6 (UniProt Q9Y2P4) 0.031
SLC35A5 (UniProt Q9BS91) -0.041
SLC26A2 (UniProt P50443) -0.106
SLC35F5 (UniProt Q8WV83) -0.08
SLC35E1 (UniProt Q96K37) 0.075
SLC31A1 (UniProt O15431) 0.115
SLC66A2 (UniProt Q8N2U9) 0.2
SLC36A4 (UniProt Q6YBV0) 0.105
SLC35C1 (UniProt Q96A29) 0.197
SLC3A2 (UniProt F5H867) -0.093
SLC43A3 (UniProt Q8NBI5) 0.131
